This passage reports binding results from publication PMC4872223.

Experiment [1] concerns the target T1, ROS1-nLUC (Arabidopsis), Q9SJQ6.
T1 chain: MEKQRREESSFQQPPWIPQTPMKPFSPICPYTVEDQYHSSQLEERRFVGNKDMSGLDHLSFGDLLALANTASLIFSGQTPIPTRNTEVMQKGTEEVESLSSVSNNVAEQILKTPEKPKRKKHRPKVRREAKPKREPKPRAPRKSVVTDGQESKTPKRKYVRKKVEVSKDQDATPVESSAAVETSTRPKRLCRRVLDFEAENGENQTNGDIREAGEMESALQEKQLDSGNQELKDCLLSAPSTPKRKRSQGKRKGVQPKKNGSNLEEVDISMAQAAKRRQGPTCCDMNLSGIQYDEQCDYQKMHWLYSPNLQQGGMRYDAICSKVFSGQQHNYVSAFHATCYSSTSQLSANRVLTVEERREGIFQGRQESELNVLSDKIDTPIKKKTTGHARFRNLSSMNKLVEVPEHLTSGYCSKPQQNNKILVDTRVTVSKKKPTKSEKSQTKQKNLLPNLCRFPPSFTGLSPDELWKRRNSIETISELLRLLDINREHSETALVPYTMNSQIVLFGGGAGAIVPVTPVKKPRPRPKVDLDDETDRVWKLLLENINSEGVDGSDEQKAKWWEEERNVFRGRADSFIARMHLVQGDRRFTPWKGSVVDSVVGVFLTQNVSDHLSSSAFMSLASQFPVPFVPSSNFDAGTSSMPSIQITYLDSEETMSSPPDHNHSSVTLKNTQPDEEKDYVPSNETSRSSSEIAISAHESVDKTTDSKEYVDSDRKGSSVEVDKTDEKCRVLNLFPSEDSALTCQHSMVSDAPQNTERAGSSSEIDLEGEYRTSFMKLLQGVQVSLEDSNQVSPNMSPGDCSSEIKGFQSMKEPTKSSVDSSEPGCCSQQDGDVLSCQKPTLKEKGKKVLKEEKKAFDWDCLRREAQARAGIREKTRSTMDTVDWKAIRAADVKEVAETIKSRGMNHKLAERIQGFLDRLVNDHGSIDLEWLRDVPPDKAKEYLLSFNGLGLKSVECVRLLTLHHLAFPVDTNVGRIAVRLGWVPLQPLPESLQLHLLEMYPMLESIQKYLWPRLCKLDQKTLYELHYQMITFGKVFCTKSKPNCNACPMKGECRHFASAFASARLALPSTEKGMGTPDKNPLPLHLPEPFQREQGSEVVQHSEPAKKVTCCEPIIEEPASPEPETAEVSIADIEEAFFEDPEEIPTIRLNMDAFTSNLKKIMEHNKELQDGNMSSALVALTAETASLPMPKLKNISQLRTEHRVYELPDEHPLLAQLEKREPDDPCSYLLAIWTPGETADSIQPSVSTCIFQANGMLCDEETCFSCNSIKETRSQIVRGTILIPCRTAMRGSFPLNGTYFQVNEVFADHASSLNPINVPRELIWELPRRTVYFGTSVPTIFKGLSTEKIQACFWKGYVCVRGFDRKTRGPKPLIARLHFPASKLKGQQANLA
As to the kind of experiment: split reporter; firefly luciferase complementation imaging (split-LUC); nLUC and cLUC fusions co-infiltrated into Nicotiana benthamiana leaves, with viral p19. As to conditions: remark: other sources report otherwise.

For experiment [2], the target named is T2, MET18, BiFC fusion (Arabidopsis) (UniProt Q0WVF8).
T2 sequence: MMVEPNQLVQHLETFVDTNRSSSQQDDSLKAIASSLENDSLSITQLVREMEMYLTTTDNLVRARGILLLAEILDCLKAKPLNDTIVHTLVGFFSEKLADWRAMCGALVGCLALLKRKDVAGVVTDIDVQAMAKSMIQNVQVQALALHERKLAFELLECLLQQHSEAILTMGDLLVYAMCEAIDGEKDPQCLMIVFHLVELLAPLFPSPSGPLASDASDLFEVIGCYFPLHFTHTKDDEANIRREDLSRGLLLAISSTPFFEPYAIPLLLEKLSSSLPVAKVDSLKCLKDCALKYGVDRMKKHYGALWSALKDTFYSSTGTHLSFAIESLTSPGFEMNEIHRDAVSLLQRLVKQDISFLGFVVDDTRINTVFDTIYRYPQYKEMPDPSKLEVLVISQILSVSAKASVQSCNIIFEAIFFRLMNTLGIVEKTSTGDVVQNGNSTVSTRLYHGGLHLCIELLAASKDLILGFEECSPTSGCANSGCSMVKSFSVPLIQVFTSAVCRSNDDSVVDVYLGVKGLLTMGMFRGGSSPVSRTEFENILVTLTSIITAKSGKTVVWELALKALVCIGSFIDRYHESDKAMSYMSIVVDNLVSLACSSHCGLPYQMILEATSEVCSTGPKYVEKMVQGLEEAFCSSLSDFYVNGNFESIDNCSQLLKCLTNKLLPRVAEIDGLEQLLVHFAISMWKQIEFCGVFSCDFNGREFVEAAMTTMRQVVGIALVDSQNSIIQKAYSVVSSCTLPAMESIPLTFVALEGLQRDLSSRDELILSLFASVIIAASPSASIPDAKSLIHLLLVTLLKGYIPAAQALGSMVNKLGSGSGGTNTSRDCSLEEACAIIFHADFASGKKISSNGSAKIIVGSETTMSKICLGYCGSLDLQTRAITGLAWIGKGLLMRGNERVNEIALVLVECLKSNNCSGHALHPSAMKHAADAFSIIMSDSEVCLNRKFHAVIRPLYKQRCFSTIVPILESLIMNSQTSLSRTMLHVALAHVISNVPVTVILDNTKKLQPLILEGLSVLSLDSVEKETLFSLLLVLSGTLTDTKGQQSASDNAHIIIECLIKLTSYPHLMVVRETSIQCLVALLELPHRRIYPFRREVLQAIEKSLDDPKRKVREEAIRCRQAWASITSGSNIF
As to the kind of experiment: split reporter; BiFC with YFP^N and YFP^C fusions, as described by Walter et al.; YFP signal primarily in the cytoplasm.

The target of experiment [3] is T3, AE7, yeast two-hybrid fusion (Arabidopsis), Q9C9G6.
T3 chain: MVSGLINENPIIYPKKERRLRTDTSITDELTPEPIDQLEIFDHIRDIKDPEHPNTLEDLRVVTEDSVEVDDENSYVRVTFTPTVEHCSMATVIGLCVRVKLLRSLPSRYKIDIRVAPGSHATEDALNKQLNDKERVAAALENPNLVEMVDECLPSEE
The experiment can be described thus: two-hybrid; pGBK-T7 (BD) and pGAD-T7 (AD) fusions co-transformed into yeast strain AH109; growth on medium lacking Leu, Trp and His (SD-TLH). The settings on record: remark: other sources report otherwise.

Results are given in words; binding and its absence hold for the method and conditions named. For part of these data: Binding seen in cells or lysates may run through a third protein. Some binding calls cover weakened binding; strength is not graded here. Sequences can lack the tags named with a protein.

B1: AE7, split-LUC fusion tested against ROS1, Q9C9G6 1-157 (protein)
chain: T3 chain
Turning to B1, in experiment [1], the binding result is given as “no binding”.

B2: ROS1, BiFC fusion (protein, UniProt Q9SJQ6 1-1393)
chain: T1 chain
With B2, the binding result in experiment [2] is listed as “binds”.

B3: ROS1, yeast two-hybrid fusion, Q9SJQ6 1-1393 (protein)
chain: T1 chain
Regarding B3, the binding result in experiment [3] is reported as “no binding”.
